# Results taken from PubChem BioAssay AID1117319 (Southern Research Institute, 2015).
# The chains behind the UniProt entries cited, without tags or fusion partners. Where a name states a change or a piece, a line headed by the entry shows the natural chain unless it says otherwise.
# UniProt P69720: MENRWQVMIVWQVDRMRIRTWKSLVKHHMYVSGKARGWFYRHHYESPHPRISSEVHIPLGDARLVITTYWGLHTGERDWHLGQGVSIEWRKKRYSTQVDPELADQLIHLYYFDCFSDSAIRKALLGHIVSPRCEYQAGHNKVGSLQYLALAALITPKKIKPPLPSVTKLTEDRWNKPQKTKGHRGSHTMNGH
# UniProt P69721: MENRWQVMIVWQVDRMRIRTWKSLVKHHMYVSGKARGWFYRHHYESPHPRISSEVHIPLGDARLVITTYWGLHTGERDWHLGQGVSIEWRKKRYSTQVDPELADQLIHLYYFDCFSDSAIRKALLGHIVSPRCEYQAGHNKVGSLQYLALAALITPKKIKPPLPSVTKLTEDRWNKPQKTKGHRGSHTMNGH
# UniProt P69722: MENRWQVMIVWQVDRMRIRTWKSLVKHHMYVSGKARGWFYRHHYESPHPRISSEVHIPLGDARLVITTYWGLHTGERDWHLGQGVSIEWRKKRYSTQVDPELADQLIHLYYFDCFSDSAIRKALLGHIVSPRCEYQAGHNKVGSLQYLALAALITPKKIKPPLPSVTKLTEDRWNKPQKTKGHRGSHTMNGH
# UniProt P69723: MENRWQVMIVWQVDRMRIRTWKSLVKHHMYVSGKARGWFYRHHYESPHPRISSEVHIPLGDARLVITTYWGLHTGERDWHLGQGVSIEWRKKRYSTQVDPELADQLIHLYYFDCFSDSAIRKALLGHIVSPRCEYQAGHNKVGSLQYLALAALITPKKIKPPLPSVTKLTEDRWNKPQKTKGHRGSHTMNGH
# UniProt Q9HC16: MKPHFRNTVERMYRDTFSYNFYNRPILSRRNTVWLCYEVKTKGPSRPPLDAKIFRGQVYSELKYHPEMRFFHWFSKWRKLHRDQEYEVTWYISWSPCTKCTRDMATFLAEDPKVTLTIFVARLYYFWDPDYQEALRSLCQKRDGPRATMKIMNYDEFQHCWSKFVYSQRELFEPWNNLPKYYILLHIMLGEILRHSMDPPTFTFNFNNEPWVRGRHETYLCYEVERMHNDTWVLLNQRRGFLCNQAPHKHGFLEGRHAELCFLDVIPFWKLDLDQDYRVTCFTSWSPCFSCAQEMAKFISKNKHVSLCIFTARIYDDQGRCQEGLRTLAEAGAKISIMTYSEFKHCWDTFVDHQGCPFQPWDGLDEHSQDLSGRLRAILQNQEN
# The whole screen tested about 260,000 compounds, of which about 1,500 (0.58%) were called active. Inconclusive means that the source gave no clear call. Such entries were picked first, then a sample of the others.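 The calls were made as follows: active = inhibition above a set limit at one or more doses, reproduced on every date tested; inconclusive = results disagree between test dates, or hit never tested in dose response; inactive = the rest.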
# Target: Virion infectivity factor (Human immunodeficiency virus type 1 group M subtype B (isolate BH10)) + Virion infectivity factor (Human immunodeficiency virus type 1 group M subtype B (isolate BRU/LAI)) + Virion infectivity factor (Human immunodeficiency virus type 1 group M subtype B (isolate PCV12)) + Virion infectivity factor (Human immunodeficiency virus type 1 group M subtype B (isolate HXB2)) + DNA dC->dU-editing enzyme APOBEC-3G (Homo sapiens) (UniProt P69720+P69721+P69722+P69723+Q9HC16)
# Test: inhibitors of Vif binding to APOBEC3G peptide, primary screen, biochemical, TR-FRET, GST-Vif 1-94, biotin-A3G peptide, dose response retest (AID 1117319);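 also: Vif residues 1-94 fused to GST binding biotinylated APOBEC3G peptide 110-148; 0% = full assay without inhibitor and 100% = GST in place of GST-Vif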
# Conditions: stronger effect = higher value
row,Compound,inhibition
1,COc1ccc(C2CC(=O)C(C=NCCN3CCN(C(=S)Nc4ccccc4)CC3)=C(O)C2)cc1OC (centres undefined),inconclusive: 33.5%
2,CN(C)c1ccc(N/C=C/C(=O)c2ccccc2)cc1,inconclusive: 42.8%
3,Clc1ccc(C(c2nnnn2C2CCCC2)N2CCSCC2)cc1 (centres undefined),inconclusive: 61.3%
4,COc1nccnc1NS(=O)(=O)c1ccc(N=Cc2c(C)[nH]n(-c3ccccc3)c2=O)cc1,inconclusive: 50%
5,CCc1nc2c(cnn2-c2ccc(F)cc2)c(=O)n1-c1ccc(N2CCC(C)CC2)cc1,inconclusive: -6.66%
6,COc1cccc(OCCNC(=O)c2ccccc2Sc2ccccc2C#N)c1,inconclusive: 42.4%
7,COc1ccc(-c2[nH]ncc2CN2CCC(O)(c3ccc(Cl)cc3)CC2)cc1,inconclusive: 33.1%
8,COC(=O)CSC1=C(C#N)C(c2ccc(Cl)cc2)C(C(=O)OC)C(=O)N1 (centres undefined),inconclusive: 52.7%
9,CCOC(=O)c1cnc2cc(-c3ccc(Cl)cc3)nn2c1N,inconclusive: 42.7%
10,COc1ccc(NC(=O)c2cccc(N3C(=O)C4C5C=CC(C5)C4C3=O)c2)c(OC)c1 (centres undefined),inconclusive: 43.5%
11,Oc1ccc(CN2CCCc3ccccc32)c2cccnc12,inconclusive: 29.9%
12,Cc1ccc(NC(=O)CSC2=NN3CCCC(=O)N=C3S2)c(C)c1,inconclusive: 52.9%
13,Cc1onc(-c2c(F)cccc2Cl)c1C(=O)Nc1nc2c(s1)CCCC2,inconclusive: 34.4%
14,CC(=O)C(C(C)=O)c1c(Cl)c(O)c(O)c2c(C(=O)c3ccccc3)coc12,inconclusive: 48.3%
15,CN1CCN(c2nnc(-c3ccc(Cl)cc3)c3ccccc23)CC1,inactive: 3.71%
16,COc1cc(C(=S)N2CCCC2)cc(Cl)c1OCC(=O)Nc1ccc(C)cc1C,inconclusive: 34%
17,Cc1cc2cc(C=C(C#N)C#N)c(Cl)nc2cc1C,inconclusive: 47%
18,CCC(C)(C(=O)NC1CCCCC1)N(Cc1cccs1)C(=O)Cc1cccs1 (centres undefined),inactive: 23.9%
19,CCO[C@@H]1OC(C(=O)NC2CC2)=C[C@H](C(C)(C)C)[C@H]1CCCO,inconclusive: 38.5%
20,Cc1ccc2c(c1)CCCN2C(=O)Nc1ccc2c(c1)OCO2,inconclusive: 34.8%

row,Compound,inhibition
1,COc1ccc(C2C(C(=O)/C=C/c3ccco3)=C(O)C(=O)N2CCN2CCOCC2)cc1OC (centres undefined),inconclusive: 52.1%
2,O=C1C(Cl)=C(NCCCN2CCOCC2)C(=O)c2ccccc21,inactive: 3.39%
3,COc1ccccc1/C=C/C(=O)c1ccccc1,inactive: 3.38%
4,COc1cccc2cc(C(=O)Nc3ccc(S(=O)(=O)NCC4CCCO4)cc3)c(=O)oc12 (centres undefined),inconclusive: 45.8%
5,CN(C)N1C(=O)CC(NNC(=O)c2ccncc2)C1=O (centres undefined),inconclusive: 48.4%
6,Cc1ccc(SCCNS(C)(=O)=O)cc1,inconclusive: 53.5%
7,CCCCN1C(=O)C2(NNc3ccccc3O2)c2ccccc21 (centres undefined),inconclusive: 33.3%
8,Cc1ccc(N2CCN(C(=S)c3ccc(N(C)C)cc3)CC2)cc1,inconclusive: 46.2%
9,CCNc1nc(NCC)nc(SCC(C)=O)n1,inactive: 1.47%
10,CCOC(=O)c1sc(NC(=O)/C=C/c2c(F)cccc2Cl)nc1C,inconclusive: 38.9%
11,N#Cc1cc(S(=O)(=O)c2ccccc2)c(N)[nH]c1=O,inconclusive: 60.6%
12,Clc1ccc(-c2cn3nc4c(nc3n2)CCCC4)cc1,inconclusive: 40.2%
13,Cc1nnc(NC(=O)c2cc3n(n2)C(C(F)(F)F)CC(C2CC2)N3)s1 (centres undefined),inconclusive: 36.3%
14,CSc1nc2c(c(=O)n1C)SC(C)C2 (centres undefined),inconclusive: -0.41%
15,CCn1c(C(C#N)/C(=N\S(=O)(=O)c2cccs2)c2ccccc2)nc2ccccc21 (centres undefined),inconclusive: 52.7%
16,COc1ccc(N2C(=O)C3CCCN3C2c2ccc(F)cc2)cc1Cl (centres undefined),inconclusive: 38.6%
17,COC(=O)c1ccc(/C=C/c2ccc3cccc(OC(C)=O)c3n2)cc1,inconclusive: 34.6%
18,CC(C)OC(=O)CSc1nc2ncccc2[nH]1,inconclusive: 42.1%
19,COc1ccccc1NC(=O)Cc1coc2cc(C)ccc12,inconclusive: 55.1%
20,COc1ccc(CN2CCN(c3nc4ccccc4s3)CC2)cc1,inactive: -11.5%

row,Compound,inhibition
1,COc1ccc(N=C2S/C(=C\c3ccc(N4CCOCC4)o3)C(=O)N2CCc2c[nH]c3ccccc23)cc1,inconclusive: 42.6%
2,O=C(c1cc2ccccc2oc1=O)N1CCN(c2ccccn2)CC1,inconclusive: 52.7%
3,O=c1c2ccccc2sn1-c1ccccc1,inconclusive: 37.8%
4,Oc1cccc(/C=N/n2c(C3CCCCC3)n[nH]c2=S)c1,inactive: 2.47%
5,O=C(O)c1ccc(CNCc2cccc(OCc3ccc(F)cc3)c2)cc1,inactive: -2.79%
6,Cc1ccc(C(c2sc3ncnn3c2O)N2CCC(C)CC2)cc1 (centres undefined),inconclusive: 35%
7,CCC(CC)C(=O)c1c[nH]c(C(=O)NCCCN2CCOCC2)c1,inconclusive: 40.8%
8,Cc1ccc(-c2ccc(/C=N/O)o2)cc1[N+](=O)[O-],inconclusive: 36.7%
9,O=C(OCc1cc2ccccc2[nH]c1=O)C1CCCCC1,inconclusive: 34.9%
10,CC(/C=N/NC(=O)c1ccccn1)=C\c1ccco1,inconclusive: 50.4%
11,CCOC(=O)C1(Cc2cccc(F)c2)CCN(C(=O)C2CCCO2)CC1 (centres undefined),inconclusive: 33.9%
12,COC(=O)c1cc2c(C)nn(-c3ccccc3)c2s1,inconclusive: 43.2%
13,CCOC(=O)CNS(=O)(=O)CCN1C(=O)c2ccccc2C1=O,inconclusive: 33.5%
14,O=c1[nH][nH]cc1C=Nc1ccccc1O,inactive: 1.21%
15,O=C(O)COc1ccccc1/C=N/NC(=O)CSc1nnc(SCc2ccc(Cl)cc2)s1,inconclusive: 40.9%
16,Cc1cc(NC(=O)CSc2nnc(Cc3cccn3C)n2CCc2ccccc2)no1,inactive: 24.2%
17,Cc1nnsc1SCC(=O)O,inconclusive: 39%
18,Cc1ccc(-c2nc3ccccc3o2)cc1NC(=S)NC(=O)c1cc2ccccc2o1,inconclusive: 36.8%
19,CCOc1ccccc1OCCOCCOc1c(Cl)cccc1Cl,inconclusive: 37.1%

# Four records picked at random from those above, as already listed:
row,Compound,inhibition
6,Cc1ccc(C(c2sc3ncnn3c2O)N2CCC(C)CC2)cc1 (centres undefined),inconclusive: 35%
7,CCC(CC)C(=O)c1c[nH]c(C(=O)NCCCN2CCOCC2)c1,inconclusive: 40.8%
5,O=C(O)c1ccc(CNCc2cccc(OCc3ccc(F)cc3)c2)cc1,inactive: -2.79%
19,CCOc1ccccc1OCCOCCOc1c(Cl)cccc1Cl,inconclusive: 37.1%
